Reference: article PMC8888459
Results are given in words; binding and its absence hold for the method and conditions named. Binding seen in cells or lysates may run through a third protein. A yes stands for co-enrichment or nearness to the bait. Other partners may have been found. Sequences can lack the tags named with a protein.

Molecular target: T1, Nfs1 with an N-terminal polyhistidine tag (S. cerevisiae) (UniProt P25374)
T1 sequence: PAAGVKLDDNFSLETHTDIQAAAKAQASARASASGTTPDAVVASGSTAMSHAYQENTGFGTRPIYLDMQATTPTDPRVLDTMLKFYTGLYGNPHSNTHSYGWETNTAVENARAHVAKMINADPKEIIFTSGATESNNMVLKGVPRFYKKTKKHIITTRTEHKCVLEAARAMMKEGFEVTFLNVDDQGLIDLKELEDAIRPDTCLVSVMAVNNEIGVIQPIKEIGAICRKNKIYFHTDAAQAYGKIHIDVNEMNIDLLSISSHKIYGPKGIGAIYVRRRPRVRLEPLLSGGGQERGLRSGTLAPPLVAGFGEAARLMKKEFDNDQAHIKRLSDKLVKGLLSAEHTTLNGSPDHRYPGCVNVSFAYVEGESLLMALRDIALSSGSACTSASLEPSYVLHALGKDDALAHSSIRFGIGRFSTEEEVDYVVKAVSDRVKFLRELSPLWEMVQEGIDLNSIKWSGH
Test: co-purification of coexpressed proteins, mass spectrometry of gel bands; Nfs1 (N-terminal polyhistidine tag) and Isd11 coexpressed in E. coli BL21-CodonPlus and purified as a complex; E. coli ACP identified in the preparation by LC-MS/MS of gel pieces

binding: binds
B1: Isd11 (protein, UniProt Q6Q560 1-94)
chain: MPGFTAPTRRQVLSLYKEFIKNANQFNNYNFREYFLSKTRTTFRKNMNQQDPKVLMNLFKEAKNDLGVLKRQSVISQMYTFDRLVVEPLQGRKH
